Measurements as given in publication PMC10733476, “OsDWARF10, transcriptionally repressed by OsSPL3, regulates the nutritional metabolism of polished rice”.

Tests used:
OsSPL3 [1] = target: T1, OsSPL3 (UniProt A2X0Q6); assay: competition with a labelled probe; details: 750 mM NaCl, 25 mM MgCl2, 100 mg/mL BSA, 50% glycerol, 5 mM DTT, recombinant protein, protein details: N-terminal 6xHis (pET28A)
T1 sequence (looked up, limits assumed): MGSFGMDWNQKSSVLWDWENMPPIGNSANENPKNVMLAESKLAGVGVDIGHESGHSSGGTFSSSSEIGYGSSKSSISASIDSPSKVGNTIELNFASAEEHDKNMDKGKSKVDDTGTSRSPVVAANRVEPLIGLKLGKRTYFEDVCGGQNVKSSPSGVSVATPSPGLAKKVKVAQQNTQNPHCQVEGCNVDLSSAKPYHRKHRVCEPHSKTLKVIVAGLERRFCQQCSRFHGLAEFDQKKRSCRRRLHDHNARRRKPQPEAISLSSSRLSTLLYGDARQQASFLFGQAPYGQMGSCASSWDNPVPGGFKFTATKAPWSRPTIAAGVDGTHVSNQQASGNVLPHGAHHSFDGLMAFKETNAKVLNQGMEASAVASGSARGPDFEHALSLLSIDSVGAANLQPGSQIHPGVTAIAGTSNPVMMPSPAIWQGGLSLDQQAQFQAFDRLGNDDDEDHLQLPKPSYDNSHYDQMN

OsSPL3 [2] = target: T1, OsSPL3; assay: EMSA; details: 750 mM NaCl, 25 mM MgCl2, 100 mg/mL BSA, 50% glycerol, 5 mM DTT; recombinant protein; protein details: N-terminal 6xHis (pET28A); label: 5' FAM on F strand

CCACGCCCCACGTAACGTAGCGTACAGTGTACACCTGATTTCGCTCGGTC (double strand) [D10 S2_C]
binding result (OsSPL3 [1]; unlabelled competitor against FAM-D10 S2): binds

CTCACACATGCTACTGATGATGTACGTACGGACGTTACGTAGCGCGCGGG (double strand) [D10 S1_C]
binding result (OsSPL3 [1]; unlabelled competitor against FAM-D10 S1): binds

CTCACACATGCTACTGATGATGAACGAACGGACGTTACGTAGCGCGCGGG (double strand) [D10 S1_M]
binding result (OsSPL3 [2]): no binding

For at least one entry, the source does not settle the construct or the ends of the probe. For part of these data: A negative result means that nothing was seen under these conditions. Protein sequences can lack the tags named with them. For part of these data: At least one verdict rests on a figure or table, not on a statement of the authors.
